Drawing on PMC6389893, this text covers binding for 1 molecule.

These are yes or no findings as the source states them, for the method shown. Binding seen in cells or lysates may run through a third protein. A result given as binding can be weak or reduced; the word gives no strength.

In the assay the target is GST-IN full length (HIV-1). Briefly: pull-down; GST pull-down of wild-type TRIM33 and its RING and PHD point mutants with IN (Supplementary Fig. 6c); how the TRIM33 proteins were made is not told for this panel.

B1: TRIM33 PHD(C901A/C902A/C905A) (protein, UniProt Q9UPN9 1-1127)
chain: MAENKGGGEAESGGGGSGSAPVTAGAAGPAAQEAEPPLTAVLVEEEEEEGGRAGAEGGAAGPDDGGVAAASSGSAQAASSPAASVGTGVAGGAVSTPAPAPASAPAPGPSAGPPPGPPASLLDTCAVCQQSLQSRREAEPKLLPCLHSFCLRCLPEPERQLSVPIPGGSNGDIQQVGVIRCPVCRQECRQIDLVDNYFVKDTSEAPSSSDEKSEQVCTSCEDNASAVGFCVECGEWLCKTCIEAHQRVKFTKDHLIRKKEDVSESVGASGQRPVFCPVHKQEQLKLFCETCDRLTCRDCQLLEHKEHRYQFLEEAFQNQKGAIENLLAKLLEKKNYVHFAATQVQNRIKEVNETNKRVEQEIKVAIFTLINEINKKGKSLLQQLENVTKERQMKLLQQQNDITGLSRQVKHVMNFTNWAIASGSSTALLYSKRLITFQLRHILKARCDPVPAANGAIRFHCDPTFWAKNVVNLGNLVIESKPAPGYTPNVVVGQVPPGTNHISKTPGQINLAQLRLQHMQQQVYAQKHQQLQQMRMQQPPAPVPTTTTTTQQHPRQAAPQMLQQQPPRLISVQTMQRGNMNCGAFQAHQMRLAQNAARIPGIPRHSGPQYSMMQPHLQRQHSNPGHAGPFPVVSVHNTTINPTSPTTATMANANRGPTSPSVTAIELIPSVTNPENLPSLPDIPPIQLEDAGSSSLDNLLSRYISGSHLPPQPTSTMNPSPGPSALSPGSSGLSNSHTPVRPPSTSSTGSRGSCGSSGRTAEKTSLSFKSDQVKVKQEPGTEDEICSFSGGVKQEKTEDGRRSACMLSSPESSLTPPLSTNLHLESELDALASLENHVKIEPADMNESCKQSGLSSLVNGKSPIRSLMHRSARIGGDGNNKDDDPNEDWCAVCQNGGDLLAAEKAPKVFHLTCHVPTLLSFPSGDWICTFCRDIGKPEVEYDCDNLQHSKKGKTAQGLSPVDQRKCERLLLYLYCHELSIEFQEPVPASIPNYYKIIKKPMDLSTVKKKLQKKHSQHYQIPDDFVADVRLIFKNCERFNEMMKVVQVYADTQEINLKADSEVAQAGKAVALYFEDKLTEIYSDRTFAPLPEFEQEEDDGEVTEDSDEDFIQPRRKRLKSDERPVHIK
As for B1, the binding entry is reported as “binds”.
